From paper PMC4042850
These are yes or no findings as the source states them, for the method shown. In cells and extracts the contact can be indirect. Some results given as binding are weak or reduced against the parent protein; the word gives no strength.

Protein sequences, listed by entry. Tags and fused reporters are not part of them. Chains listed by the source or under a name are the forms on record and can include a tag or linker. Residues count along the entry.
GST-tagged titin A168-TK (residues 31854–32492) (Q8WZ42, residues 31854-32492): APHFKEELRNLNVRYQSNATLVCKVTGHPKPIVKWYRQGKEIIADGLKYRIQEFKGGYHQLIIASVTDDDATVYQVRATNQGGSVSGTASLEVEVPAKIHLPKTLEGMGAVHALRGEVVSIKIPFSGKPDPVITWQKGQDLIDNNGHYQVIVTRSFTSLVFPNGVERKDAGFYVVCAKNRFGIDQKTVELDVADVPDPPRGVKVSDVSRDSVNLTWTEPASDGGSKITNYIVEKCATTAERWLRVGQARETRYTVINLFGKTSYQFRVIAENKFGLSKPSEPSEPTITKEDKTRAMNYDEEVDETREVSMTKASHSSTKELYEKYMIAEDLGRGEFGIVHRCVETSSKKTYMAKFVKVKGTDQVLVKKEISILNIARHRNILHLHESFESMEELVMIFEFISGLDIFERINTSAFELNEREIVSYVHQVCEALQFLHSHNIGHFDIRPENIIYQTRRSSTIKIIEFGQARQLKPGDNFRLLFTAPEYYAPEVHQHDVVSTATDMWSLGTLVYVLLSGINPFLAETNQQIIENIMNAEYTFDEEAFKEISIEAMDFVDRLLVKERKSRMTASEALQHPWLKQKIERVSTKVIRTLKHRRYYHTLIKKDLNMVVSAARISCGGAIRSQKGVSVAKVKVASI
GST-tagged titin A168–170 (residues 31854–32155) (Q8WZ42, residues 31854-32155): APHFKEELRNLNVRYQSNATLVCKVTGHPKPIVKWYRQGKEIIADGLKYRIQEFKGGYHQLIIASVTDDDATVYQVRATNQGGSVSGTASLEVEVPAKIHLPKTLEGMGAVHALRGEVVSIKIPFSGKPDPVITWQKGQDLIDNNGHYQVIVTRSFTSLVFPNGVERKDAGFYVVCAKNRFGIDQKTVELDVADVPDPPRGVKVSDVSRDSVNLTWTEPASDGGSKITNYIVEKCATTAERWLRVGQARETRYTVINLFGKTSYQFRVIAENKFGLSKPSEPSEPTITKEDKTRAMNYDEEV
GST-tagged titin kinase (TK) (Q8WZ42, residues 32172-32492): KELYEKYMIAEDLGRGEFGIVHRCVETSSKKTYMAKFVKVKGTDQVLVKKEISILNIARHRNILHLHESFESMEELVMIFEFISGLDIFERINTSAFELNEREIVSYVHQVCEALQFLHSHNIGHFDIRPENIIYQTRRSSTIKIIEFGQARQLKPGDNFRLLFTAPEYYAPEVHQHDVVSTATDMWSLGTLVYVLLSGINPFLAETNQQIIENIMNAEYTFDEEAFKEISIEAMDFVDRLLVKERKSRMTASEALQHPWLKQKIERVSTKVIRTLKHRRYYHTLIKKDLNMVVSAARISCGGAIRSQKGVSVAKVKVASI
UniProt Q38HM4: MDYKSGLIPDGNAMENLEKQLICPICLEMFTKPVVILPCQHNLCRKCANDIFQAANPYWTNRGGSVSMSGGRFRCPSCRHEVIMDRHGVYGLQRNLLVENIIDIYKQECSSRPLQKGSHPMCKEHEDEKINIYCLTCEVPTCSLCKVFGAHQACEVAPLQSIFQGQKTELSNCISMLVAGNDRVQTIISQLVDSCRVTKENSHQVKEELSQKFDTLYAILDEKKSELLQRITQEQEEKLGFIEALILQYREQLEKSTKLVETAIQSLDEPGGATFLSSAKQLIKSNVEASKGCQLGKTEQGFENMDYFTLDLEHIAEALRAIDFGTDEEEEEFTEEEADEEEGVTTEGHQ

Experiments:
Assay in all cases: pull-down; 50 µg GST or GST-titin fragment immobilised on 30 µl Glutathione-Sepharose beads; 1 ml diluted mouse quadriceps extract, 16 h at 4°C, PBS, 0.1% NP40; Western blot with a MuRF1-specific antibody; only the target purified
[1] = biological target: GST-tagged titin kinase (TK) (human) (UniProt Q8WZ42)
[2] = biological target: GST-tagged titin A168-TK (residues 31854–32492) (human) (UniProt Q8WZ42)
[3] = biological target: GST-tagged titin A168–170 (residues 31854–32155) (human) (UniProt Q8WZ42)

## endogenous MuRF1 (mouse skeletal muscle) (from UniProt Q38HM4 1-350)
[1]
  binding: no binding (tested: 50 µg bait on beads)
[2]
  binding: binds
[3]
  binding: binds
